Measured values reported in patent publication US20050090485A1, “7-Arylsulfonamido-2,3,4,5-tetrahydro-1h-benzo'diazepine derivatives with 5ht6 receptor affinity for the reatment of cns disorders” (priority 2002, published 2005).
Counter-ions that a name gives are not always drawn. Some entries share one result that the patent states for a list of compounds.

Chains of the proteins cited; added tags and fusions are not shown.
UniProt P50406, whole entry: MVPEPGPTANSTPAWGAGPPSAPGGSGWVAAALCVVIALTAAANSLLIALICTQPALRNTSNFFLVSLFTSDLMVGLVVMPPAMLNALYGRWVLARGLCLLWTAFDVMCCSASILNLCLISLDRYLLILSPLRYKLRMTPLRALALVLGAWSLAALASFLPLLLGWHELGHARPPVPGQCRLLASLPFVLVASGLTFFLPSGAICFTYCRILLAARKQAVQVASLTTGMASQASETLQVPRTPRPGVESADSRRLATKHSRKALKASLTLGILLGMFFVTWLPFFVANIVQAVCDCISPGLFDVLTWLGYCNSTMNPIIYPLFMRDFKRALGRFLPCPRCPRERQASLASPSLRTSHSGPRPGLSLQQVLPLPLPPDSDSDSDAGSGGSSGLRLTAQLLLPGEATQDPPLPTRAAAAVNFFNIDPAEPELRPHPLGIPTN

Target: T1, human cloned 5-HT6 receptors (Homo sapiens, UniProt P50406)
T1 construct: expressed in transfected cells
Assay: 5-HT6 receptor affinity, procedures outlined in WO98/27081
Format: binding
Text: Compounds can be tested following the procedures outlined in WO98/27081.

Row | SMILES | pKi values at human cloned 5-HT6 receptors
1 | O=S(=O)(Nc1ccc2c(c1)CCNCC2)c1ccc(Br)cc1OC(F)(F)F [Example E6, 7-(4-Bromo-2-trifuoromethoxy)phenylsulfonamido-2,3,4,5-tetrahydro-1H-benzo[d]azepine] | > 8
2 | CCc1cc(Br)ccc1S(=O)(=O)Nc1ccc2c(c1)CCNCC2 [Example E9] | > 8
3 | Cl.O=S(=O)(Nc1ccc2c(c1)CCNCC2)c1cccc(C(F)(F)F)c1 [Example E1, 2,3,4,5-Tetrahydro-7-(3-trifluoromethyl)phenylsulfonamido-1H-benzo[d]azepine, hydrochloride] | > 8
4 | O=S(=O)(Nc1ccc2c(c1)CCNCC2)c1cccc(Cl)c1Cl [Example E7] | > 8
5 | Cl.O=S(=O)(Nc1ccc2c(c1)CCNCC2)c1ccc(Br)cc1OC(F)(F)F [Example E11, 7-(4Bromo-2-trifluoromethoxy)phenylsulfonamido-2,3,4,5-tetrahydro-1H-benzo[d]azepine, hydrochloride] | > 8
6 | O=S(=O)(Nc1ccc2c(c1)CCNCC2)c1ccc(Cl)cc1OC(F)(F)F [Example E10, 7(4-Chloro-2-trifluoromethoxy)phenylsulfonamido-2,3,5-tetrahydro-1H-benzo[d]azepine] | > 8
7 | COc1c(Cl)cc(Cl)cc1S(=O)(=O)Nc1ccc2c(c1)CCNCC2 [Example E8] | > 8

More lines, now with the values ahead:

Row | pKi values at human cloned 5-HT6 receptors | SMILES
8 | > 8 | O=S(=O)(Nc1cc(Cl)c2c(c1)CCNCC2)c1cccc(C(F)(F)F)c1 [Example E14]
9 | > 8 | Cl.O=S(=O)(Nc1ccc2c(c1)CCNCC2)c1ccc(Cl)cc1OC(F)(F)F [Example E12, 7-(4-Chloro-2-trifluoromethoxy)phenylsulfonamido-2,3,4,5-tetrahydro-1H-benzo[d]azepine, hydrochloride]
10 | > 8 | O=S(=O)(Nc1ccc2c(c1Cl)CCNCC2)c1ccc(Br)cc1OC(F)(F)F [Example E16, 7-(4Bromo-2-trifluoroethoxy-benzenesulfonylamino)-6chloro-1,2,4,5-tetrahydro-benzo[d]azepine Hydrochloride]
11 | > 8 | COc1cc2c(cc1NS(=O)(=O)c1cc(Cl)cc(Cl)c1OC)CCNCC2.Cl [Example E17, 3,5-Dichloro-2-methoxy-N-(8methoxy-2,3,4,5-tetrahydro-1H-benzo[d]azepin-7-yl)-benzenesulfonamide hydrochloride]
